Data: the supplement of paper PMC11732987, “Enantioselective OTUD7B fragment discovery through chemoproteomics screening and high-throughput optimisation” (Communications Chemistry, 2025)
This is one part of the list. The data scatter; read single values as rough.

Sequences of proteins named here, by UniProt entry; tags and fusion partners are left off. A change or cut given only in a name is not applied to a line headed by its entry.
UniProt Q9P1Y6: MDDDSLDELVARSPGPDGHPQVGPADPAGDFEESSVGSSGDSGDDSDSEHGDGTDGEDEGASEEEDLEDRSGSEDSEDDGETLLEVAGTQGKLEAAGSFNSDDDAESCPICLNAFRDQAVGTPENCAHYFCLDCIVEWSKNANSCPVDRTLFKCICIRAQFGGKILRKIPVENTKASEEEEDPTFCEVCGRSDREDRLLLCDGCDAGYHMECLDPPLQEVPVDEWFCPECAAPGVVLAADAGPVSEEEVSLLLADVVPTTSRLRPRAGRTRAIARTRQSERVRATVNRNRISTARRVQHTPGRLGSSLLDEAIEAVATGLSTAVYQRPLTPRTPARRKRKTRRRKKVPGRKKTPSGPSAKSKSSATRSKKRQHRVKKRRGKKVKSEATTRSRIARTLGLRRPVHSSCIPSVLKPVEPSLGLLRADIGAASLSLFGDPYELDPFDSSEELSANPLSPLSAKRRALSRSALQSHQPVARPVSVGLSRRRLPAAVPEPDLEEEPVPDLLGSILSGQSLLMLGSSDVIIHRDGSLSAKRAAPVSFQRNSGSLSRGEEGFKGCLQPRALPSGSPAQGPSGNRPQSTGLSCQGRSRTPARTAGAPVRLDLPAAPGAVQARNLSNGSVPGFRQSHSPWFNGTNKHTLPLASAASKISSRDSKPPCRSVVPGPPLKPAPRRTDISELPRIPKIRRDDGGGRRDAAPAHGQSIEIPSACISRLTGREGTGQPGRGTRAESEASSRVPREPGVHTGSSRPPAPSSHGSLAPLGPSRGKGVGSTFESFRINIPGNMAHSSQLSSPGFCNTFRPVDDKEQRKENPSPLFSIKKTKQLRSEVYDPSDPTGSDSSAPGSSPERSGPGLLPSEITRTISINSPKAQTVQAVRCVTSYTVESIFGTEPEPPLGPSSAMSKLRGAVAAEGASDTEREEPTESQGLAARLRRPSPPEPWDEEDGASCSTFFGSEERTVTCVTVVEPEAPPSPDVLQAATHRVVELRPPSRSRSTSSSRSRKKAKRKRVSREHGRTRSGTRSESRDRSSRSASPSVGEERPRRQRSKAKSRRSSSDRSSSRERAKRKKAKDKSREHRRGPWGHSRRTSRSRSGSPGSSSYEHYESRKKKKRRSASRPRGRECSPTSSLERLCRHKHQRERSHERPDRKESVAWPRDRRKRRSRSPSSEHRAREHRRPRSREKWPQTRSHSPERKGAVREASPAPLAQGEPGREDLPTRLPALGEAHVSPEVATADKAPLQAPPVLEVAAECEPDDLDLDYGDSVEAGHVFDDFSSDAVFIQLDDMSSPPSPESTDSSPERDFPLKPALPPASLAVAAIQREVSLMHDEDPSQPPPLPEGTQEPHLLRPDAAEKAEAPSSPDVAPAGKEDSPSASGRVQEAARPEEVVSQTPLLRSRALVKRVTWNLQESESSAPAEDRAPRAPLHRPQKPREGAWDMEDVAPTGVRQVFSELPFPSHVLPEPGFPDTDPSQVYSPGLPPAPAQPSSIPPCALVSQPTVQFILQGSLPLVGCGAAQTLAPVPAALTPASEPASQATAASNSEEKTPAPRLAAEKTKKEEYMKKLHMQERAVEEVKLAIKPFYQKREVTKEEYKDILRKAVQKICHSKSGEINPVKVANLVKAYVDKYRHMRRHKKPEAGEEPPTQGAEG

biological target: T1, PHRF1 C878 (UniProt Q9P1Y6); test: log2 mean competition ratio of IA-DTB cysteine labelling (DMSO/compound) (log2 ratio); higher = stronger cysteine engagement by compound; conditions: 50 µM; treatment time: 4 h; cell line lysate: HEK293T
T1 sequence (whole entry): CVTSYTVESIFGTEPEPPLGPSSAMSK
Procedure: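 IA-DTB competitive cysteine chemoproteomics in HEK293T RIPA lysate. Lysates were treated with compound 29 or 30 at 50 or 200 µM for 4 h, then IA-DTB (500 µM, 1 h), trypsin-digested, NeutrAvidin-enriched and analysed by diaPASEF. Competition ratio = intensity DMSO / intensity compound (n=4 treated, n=64 DMSO); binding: mean log2 CR ≥ 1 and p ≤ 0.05 plus QC filters. Target is the cysteine site.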

Structure (SMILES)	log2 mean competition ratio
O=C(CCl)N[C@@H]1CCCc2ccccc21	-0.0401
O=C(CCl)N[C@H]1CCCc2ccccc21	0.119

same assay, conditions: 200 µM; treatment time: 4 h; cell line lysate: HEK293T

Structure (SMILES)	log2 mean competition ratio
O=C(CCl)N[C@@H]1CCCc2ccccc21	0.21
O=C(CCl)N[C@H]1CCCc2ccccc21	-0.0314
